This passage reports binding results from publication PMC4316790.

No constants are given. Whether binding was seen depends on the method and setting. In cells and extracts the contact can be indirect. A yes stands for co-enrichment or nearness to the bait. Other partners may have been found. Sequences can lack the tags named with a protein.

The test concerns the target T1, NlpI-M (mature NlpI without signal peptide), C-terminal His-tagged, from pQE80-nlpI-M (E. coli) (UniProt P0AFB1).
T1 sequence: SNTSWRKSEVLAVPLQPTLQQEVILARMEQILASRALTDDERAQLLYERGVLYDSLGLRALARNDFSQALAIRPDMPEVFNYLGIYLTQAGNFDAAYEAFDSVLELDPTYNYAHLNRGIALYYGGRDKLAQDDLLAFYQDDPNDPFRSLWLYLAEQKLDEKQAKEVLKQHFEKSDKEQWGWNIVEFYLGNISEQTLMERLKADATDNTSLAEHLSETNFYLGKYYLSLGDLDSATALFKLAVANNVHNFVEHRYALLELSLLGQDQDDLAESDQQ
As to the kind of experiment: affinity purification with mass spectrometry; NlpI-M expressed and purified in the wild type strain; co-eluted proteins found by Western blot and MS analysis. For orientation: Immunoblotting shows a protein as a band on a membrane.

B1: Heat shock protein IbpB (protein, UniProt P0C058 1-142)
chain: MRNFDLSPLMRQWIGFDKLANALQNAGESQSFPPYNIEKSDDNHYRITLALAGFRQEDLEIQLEGTRLSVKGTPEQPKEEKKWLHQGLMNQPFSLSFTLAENMEVSGATFVNGLLHIDLIRNEPEPIAAQRIAISERPALNS
With B1, the binding entry is “binds”.
